According to patent US4612366A (Merck & Co., Inc., priority 1985, dated 1986):

Experiment: general procedure: Boc solid-phase peptide synthesis; OCH2-phi-resin
Conditions: late stage modification step

| Substance | final HPLC purity [%] | crude HPLC purity [%] |
| --- | --- | --- |
| Cyclo(Phe-Pro(γ-cis-OH)-Phe-D-Trp-Lys-Thr) | 94 |  |
| Cyclo(Phe-Pro(γ-cis-OAc)-Phe-D-Trp-Lys-Thr) | 90 |  |
| Cyclo [Phe-Pro(γ-t-OTs)-Phe-D-Trp-Lys-(2-Cl-CBZ)-Thr-(BZl)] | 98 |  |
| Cyclo[Phe-Pro(γ-t-OAC)-Phe-D-Trp-Lys(2-Cl-CBZ)-Thr-(BZl)] |  | 90 |
